Data: article PMC8187452
These are yes or no findings as the source states them, for the method shown. For part of these data: Binding seen in cells or lysates may run through a third protein. Some binding calls cover weakened binding; strength is not graded here. Values belong to the substance of their own block, whether it stands above or below them.

Chains of the proteins cited; added tags and fusions are not shown. Lines headed by an entry give the natural chain unless they say otherwise; changes in a name come on top. Residues count along the entry.
UniProt O80982: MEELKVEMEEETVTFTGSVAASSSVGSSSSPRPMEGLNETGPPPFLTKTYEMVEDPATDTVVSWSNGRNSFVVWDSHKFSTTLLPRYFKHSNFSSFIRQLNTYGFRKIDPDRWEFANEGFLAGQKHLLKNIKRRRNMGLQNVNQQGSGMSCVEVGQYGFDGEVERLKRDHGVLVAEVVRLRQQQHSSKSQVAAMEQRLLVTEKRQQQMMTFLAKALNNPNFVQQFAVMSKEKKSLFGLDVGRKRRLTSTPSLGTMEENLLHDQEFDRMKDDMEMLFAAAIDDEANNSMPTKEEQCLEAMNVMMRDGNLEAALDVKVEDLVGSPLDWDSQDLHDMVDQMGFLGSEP
GAL4 DNA-binding domain fusion of HSFA2 aa 1-269 (A2Δ): residues 1-269 of O80982
UniProt P41151: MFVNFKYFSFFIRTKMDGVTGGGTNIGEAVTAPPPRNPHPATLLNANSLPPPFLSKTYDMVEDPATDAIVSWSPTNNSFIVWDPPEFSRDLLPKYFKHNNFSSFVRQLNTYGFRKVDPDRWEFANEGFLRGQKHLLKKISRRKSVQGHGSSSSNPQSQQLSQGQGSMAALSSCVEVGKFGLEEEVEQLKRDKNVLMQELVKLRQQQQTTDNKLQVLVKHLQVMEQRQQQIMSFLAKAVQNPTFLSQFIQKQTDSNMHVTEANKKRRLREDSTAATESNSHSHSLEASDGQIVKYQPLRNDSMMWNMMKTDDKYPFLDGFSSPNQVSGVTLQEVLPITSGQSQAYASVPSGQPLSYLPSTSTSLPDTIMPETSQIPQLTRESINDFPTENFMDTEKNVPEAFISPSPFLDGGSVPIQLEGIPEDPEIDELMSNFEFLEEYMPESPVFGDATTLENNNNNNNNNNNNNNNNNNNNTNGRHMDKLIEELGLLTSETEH
UniProt O81821: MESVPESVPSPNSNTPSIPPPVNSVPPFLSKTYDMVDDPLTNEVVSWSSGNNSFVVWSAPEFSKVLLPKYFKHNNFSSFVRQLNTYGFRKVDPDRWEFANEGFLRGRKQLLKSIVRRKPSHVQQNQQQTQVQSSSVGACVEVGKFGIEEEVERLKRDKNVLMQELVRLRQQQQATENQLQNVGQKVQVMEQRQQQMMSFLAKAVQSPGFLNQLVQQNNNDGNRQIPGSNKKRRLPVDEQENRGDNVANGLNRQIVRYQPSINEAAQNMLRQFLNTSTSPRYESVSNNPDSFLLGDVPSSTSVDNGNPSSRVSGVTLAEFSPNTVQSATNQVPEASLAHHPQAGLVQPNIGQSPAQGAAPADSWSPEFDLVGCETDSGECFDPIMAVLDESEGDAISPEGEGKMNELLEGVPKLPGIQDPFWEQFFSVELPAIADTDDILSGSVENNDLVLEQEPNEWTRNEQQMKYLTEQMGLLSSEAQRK
UniProt Q9LQM7: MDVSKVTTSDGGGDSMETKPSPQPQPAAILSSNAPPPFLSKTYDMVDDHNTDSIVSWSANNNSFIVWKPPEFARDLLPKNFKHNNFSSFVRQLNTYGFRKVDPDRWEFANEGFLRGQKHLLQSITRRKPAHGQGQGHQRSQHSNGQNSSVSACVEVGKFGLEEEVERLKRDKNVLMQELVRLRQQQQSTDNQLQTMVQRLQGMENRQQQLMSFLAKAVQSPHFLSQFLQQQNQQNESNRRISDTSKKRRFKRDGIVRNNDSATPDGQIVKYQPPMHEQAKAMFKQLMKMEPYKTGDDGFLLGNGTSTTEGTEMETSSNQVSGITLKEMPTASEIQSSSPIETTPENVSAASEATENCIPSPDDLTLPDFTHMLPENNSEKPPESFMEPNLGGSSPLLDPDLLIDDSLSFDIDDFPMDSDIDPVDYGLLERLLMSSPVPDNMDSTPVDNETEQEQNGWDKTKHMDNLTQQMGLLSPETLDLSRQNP
UniProt Q9SV12: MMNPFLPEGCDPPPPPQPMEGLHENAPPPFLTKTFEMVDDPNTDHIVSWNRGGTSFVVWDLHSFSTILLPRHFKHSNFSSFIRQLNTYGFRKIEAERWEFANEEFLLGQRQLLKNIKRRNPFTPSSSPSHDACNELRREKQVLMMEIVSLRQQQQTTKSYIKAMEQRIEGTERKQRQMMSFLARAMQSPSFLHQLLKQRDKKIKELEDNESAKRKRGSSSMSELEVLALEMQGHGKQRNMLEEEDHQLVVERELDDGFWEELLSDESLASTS

Experiments:
[1] = biological target: HSFA2-YFP expressed from pHSFA2::HSFA2-YFP (A. thaliana) (UniProt O80982); experiment: co-IP; seedlings carrying pHSFA2::HSFA2-YFP and pHSFA3::FLAG-HSFA3 in hsfa2 hsfa3-1, sampled after ACC up to 76 h; native extract (50 mM Tris-HCl pH 7.5, 150 mM NaCl, 2% Triton X-100); anti-DYKDDDDK paramagnetic beads 1.5 h at 4 °C for FLAG-HSFA3, reciprocal precipitation of HSFA2-YFP (beads not told); blots with anti-GFP and anti-FLAG
[2] = biological target: Halo-tagged HSFA1A (pIX-HALO), in vitro translated (A. thaliana) (UniProt P41151); experiment: pull-down; pairs of Halo-tagged and FLAG-tagged HSFs co-translated in vitro (TNT wheat germ); incubated overnight with Magne HaloTag beads, washed three times in PBS/0.1% NP-40; blots with anti-FLAG and anti-Halo
[3] = biological target: Halo-tagged HSFA1B (pIX-HALO), in vitro translated (A. thaliana) (UniProt O81821); experiment: as above
[4] = biological target: Halo-tagged HSFA1D (pIX-HALO), in vitro translated (A. thaliana) (UniProt Q9LQM7); experiment: as above
[5] = biological target: Halo-tagged HSFA7A (pIX-HALO), in vitro translated (A. thaliana) (UniProt Q9SV12); experiment: as above
[6] = biological target: GAL4 DNA-binding domain fusion of HSFA2 aa 1-269 (A2Δ) (A. thaliana) (UniProt O80982); experiment: two-hybrid; yeast MaV203, pGBKT7 (bait) and pGADT7 (prey); growth on SD-WLH with 50 mM 3-AT, 28 °C; BD fusions truncated (A2Δ aa 1-269, A3Δ aa 1-275)

binding [1]: binds
Substance: 3xFLAG-HSFA3 (FORGETTER3/HEAT SHOCK …ON FACTOR A3) expressed from pHSFA3::FLAG-HSFA3 (from UniProt Q8GYY1 1-412)

binding [2]: binds
binding [3]: binds
binding [4]: binds
binding [5]: binds
Substance: 3xFLAG-tagged HSFA3 (pIX-FLAG), in vitro translated (from UniProt Q8GYY1 1-412)

binding [6]: binds
Substance: HSFA3 in pGADT7 (yeast two-hybrid prey) (from UniProt Q8GYY1 1-412)
